Test in all cases: affinity purification with mass spectrometry; Flag M2 resin IP from mitochondria-enriched extracts of HeLa cells expressing one C-terminally Flag-tagged mouse bait; crude eluates analysed by MudPIT; partners enriched 10 x over control IP and mitochondrial input; three biological replicates
Experiment [1] addresses T1, ISCA1-Flag (mouse ISCA1 with a C-terminal Flag epitope) (mouse) (UniProt Q9D924).
T1 sequence: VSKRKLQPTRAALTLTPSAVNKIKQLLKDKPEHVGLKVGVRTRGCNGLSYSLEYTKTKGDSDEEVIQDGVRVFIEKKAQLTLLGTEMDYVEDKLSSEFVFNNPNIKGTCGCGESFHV

Chains of the proteins cited; added tags and fusions are not shown. Lines headed by an entry give the natural chain unless they say otherwise; changes in a name come on top.
UniProt Q8CAK1: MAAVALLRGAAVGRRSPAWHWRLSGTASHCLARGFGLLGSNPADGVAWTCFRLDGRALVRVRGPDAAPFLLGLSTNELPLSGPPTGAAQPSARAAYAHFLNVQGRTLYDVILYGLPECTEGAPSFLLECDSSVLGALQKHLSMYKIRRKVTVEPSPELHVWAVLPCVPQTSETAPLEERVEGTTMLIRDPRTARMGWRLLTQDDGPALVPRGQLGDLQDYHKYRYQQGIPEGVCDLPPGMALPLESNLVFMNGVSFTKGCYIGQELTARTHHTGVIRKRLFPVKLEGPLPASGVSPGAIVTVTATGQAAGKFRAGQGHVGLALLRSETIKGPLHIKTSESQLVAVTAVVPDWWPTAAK
UniProt Q9DCB8: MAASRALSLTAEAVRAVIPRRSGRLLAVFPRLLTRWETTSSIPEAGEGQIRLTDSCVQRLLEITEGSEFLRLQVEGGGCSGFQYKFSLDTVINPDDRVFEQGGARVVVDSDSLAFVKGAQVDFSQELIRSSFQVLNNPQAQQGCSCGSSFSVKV

Experiment [2] has as its target T2, FDX2-Flag (mouse FDX2 with a C-terminal Flag epitope) (mouse) (UniProt Q9CPW2).
T2 sequence: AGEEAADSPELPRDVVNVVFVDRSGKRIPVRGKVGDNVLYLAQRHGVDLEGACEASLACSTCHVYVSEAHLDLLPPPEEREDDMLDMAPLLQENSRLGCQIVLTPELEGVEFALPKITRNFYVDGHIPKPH

For experiment [3], the target named is IBA57-Flag (mouse IBA57 with a C-terminal Flag epitope) (mouse) (UniProt Q8CAK1).
The target in experiment [4] is T3, GLRX5-Flag (mouse GLRX5 with a C-terminal Flag epitope) (mouse) (UniProt Q80Y14).
T3 sequence: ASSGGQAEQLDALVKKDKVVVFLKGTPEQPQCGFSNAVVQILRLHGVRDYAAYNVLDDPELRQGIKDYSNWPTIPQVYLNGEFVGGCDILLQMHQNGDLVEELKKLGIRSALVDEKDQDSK

In experiment [5] the target is ISCA2-Flag (mouse ISCA2 with a C-terminal Flag epitope) (mouse) (UniProt Q9DCB8).

No constants are given. Whether binding was seen depends on the method and setting. In cells and extracts the contact can be indirect. A yes stands for co-enrichment or nearness to the bait. Other partners may have been found. For part of these data: No binding means not detected with the bait. For part of these data: Sequences can lack the tags named with a protein.

B1: ISCA2 (endogenous, HeLa) (protein, UniProt Q86U28 9-154)
chain: LTAATQRAVTPWPRGRLLTASLGPQARREASSSSPEAGEGQIRLTDSCVQRLLEITEGSEFLRLQVEGGGCSGFQYKFSLDTVINPDDRVFEQGGARVVVDSDSLAFVKGAQVDFSQELIRSSFQVLNNPQAQQGCSCGSSFSIKL
In the case of B1, the binding result in experiment [1] was “binds”; in experiment [2], “no binding”; in experiment [3] it was “binds”; in experiment [4], “binds”.

B2: ISCA1 (endogenous, HeLa) (protein, UniProt Q9BUE6 13-129)
chain: VSKRKLQPTRAALTLTPSAVNKIKQLLKDKPEHVGVKVGVRTRGCNGLSYTLEYTKTKGDSDEEVIQDGVRVFIEKKAQLTLLGTEMDYVEDKLSSEFVFNNPNIKGTCGCGESFNI
For the molecule B2, the binding entry in experiment [5] is “binds”; in experiment [3] it was “no binding”.

B3: GLRX5 (endogenous, HeLa) (protein, UniProt Q86SX6 32-157)
chain: AGSGAGGGGSAEQLDALVKKDKVVVFLKGTPEQPQCGFSNAVVQILRLHGVRDYAAYNVLDDPELRQGIKDYSNWPTIPQVYLNGEFVGGCDILLQMHQNGDLVEELKKLGIHSALLDEKKDQDSK
Regarding B3, in experiment [5], the binding result is listed as “binds”.

B4: NFU1 (endogenous, HeLa) (protein, UniProt Q9UMS0 10-254)
chain: GAAAVAAGLRRRFCHMLKNPYTIKKQPLHQFVQRPLFPLPAAFYHPVRYMFIQTQDTPNPNSLKFIPGKPVLETRTMDFPTPAAAFRSPLARQLFRIEGVKSVFFGPDFITVTKENEELDWNLLKPDIYATIMDFFASGLPLVTEETPSGEAGSEEDDEVVAMIKELLDTRIRPTVQEDGGDVIYKGFEDGIVQLKLQGSCTSCPSSIITLKNGIQNMLQFYIPEVEGVEQVMDDESDEKEANSP
Consider B4, for which the figures for the binding entry in experiment [1], in experiment [5] and in experiment [3] were “binds”, “no binding” and “no binding”, respectively.

B5: IBA57 (endogenous, HeLa) (protein, UniProt Q5T440 40-356)
chain: GDPTAGAAWACFRLDGRTLLRVRGPDAAPFLLGLLTNELPLPSPAAAGAPPAARAGYAHFLNVQGRTLYDVILYGLQEHSEVSGFLLECDSSVQGALQKHLALYRIRRKVTVEPHPELRVWAVLPSSPEACGAASLQERAGAAAILIRDPRTARMGWRLLTQDEGPALVPGGRLGDLWDYHQHRYLQGVPEGVRDLPPGVALPLESNLAFMNGVSFTKGCYIGQELTARTHHMGVIRKRLFPVRFLDPLPTSGITPGATVLTASGQTVGKFRAGQGNVGLALLWSEKIKGPLHIRASEGAQVALAASVPDWWPTVSK
For the molecule B5, the values for the binding result in experiment [1] and in experiment [5] were “no binding” and “binds”, respectively.

(Values after article PMC5437272.)
